According to PMC7977447:
These are yes or no findings as the source states them, for the method shown. Binding seen in cells or lysates may run through a third protein. Some results given as binding are weak or reduced against the parent protein; the word gives no strength.

Biological target: T1, endogenous Fndc5 (human (endogenous in HepG2)) (UniProt Q8NAU1)
T1 sequence: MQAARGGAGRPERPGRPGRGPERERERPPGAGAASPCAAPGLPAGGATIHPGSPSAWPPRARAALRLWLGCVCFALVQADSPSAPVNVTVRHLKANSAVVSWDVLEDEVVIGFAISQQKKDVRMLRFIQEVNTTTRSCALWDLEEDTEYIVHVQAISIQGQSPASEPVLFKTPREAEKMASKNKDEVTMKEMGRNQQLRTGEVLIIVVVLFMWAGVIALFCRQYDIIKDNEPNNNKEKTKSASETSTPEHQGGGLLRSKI
Assay: co-IP; endogenous proteins in HepG2 cells; lysis in radioimmunoprecipitation assay buffer, protein A/G-agarose beads, immunoblotting; normal IgG as control

- binding: binds
B1: endogenous SIRT2 (enzyme, UniProt Q8IXJ6 1-389)
chain: MAEPDPSHPLETQAGKVQEAQDSDSDSEGGAAGGEADMDFLRNLFSQTLSLGSQKERLLDELTLEGVARYMQSERCRRVICLVGAGISTSAGIPDFRSPSTGLYDNLEKYHLPYPEAIFEISYFKKHPEPFFALAKELYPGQFKPTICHYFMRLLKDKGLLLRCYTQNIDTLERIAGLEQEDLVEAHGTFYTSHCVSASCRHEYPLSWMKEKIFSEVTPKCEDCQSLVKPDIVFFGESLPARFFSCMQSDFLKVDLLLVMGTSLQVQPFASLISKAPLSTPRLLINKEKAGQSDPFLGMIMGLGGGMDFDSKKAYRDVAWLGECDQGCLALAELLGWKKELEDLVRREHASIDAQSGAGVPNPSTSASPKKSPPPAKDEARTTEREKPQ
